Among the data in US20210290612A1 are binding values, retold here.

Chains of the proteins cited; added tags and fusions are not shown. Lines headed by an entry give the natural chain unless they say otherwise; changes in a name come on top.
UniProt Q6VY07: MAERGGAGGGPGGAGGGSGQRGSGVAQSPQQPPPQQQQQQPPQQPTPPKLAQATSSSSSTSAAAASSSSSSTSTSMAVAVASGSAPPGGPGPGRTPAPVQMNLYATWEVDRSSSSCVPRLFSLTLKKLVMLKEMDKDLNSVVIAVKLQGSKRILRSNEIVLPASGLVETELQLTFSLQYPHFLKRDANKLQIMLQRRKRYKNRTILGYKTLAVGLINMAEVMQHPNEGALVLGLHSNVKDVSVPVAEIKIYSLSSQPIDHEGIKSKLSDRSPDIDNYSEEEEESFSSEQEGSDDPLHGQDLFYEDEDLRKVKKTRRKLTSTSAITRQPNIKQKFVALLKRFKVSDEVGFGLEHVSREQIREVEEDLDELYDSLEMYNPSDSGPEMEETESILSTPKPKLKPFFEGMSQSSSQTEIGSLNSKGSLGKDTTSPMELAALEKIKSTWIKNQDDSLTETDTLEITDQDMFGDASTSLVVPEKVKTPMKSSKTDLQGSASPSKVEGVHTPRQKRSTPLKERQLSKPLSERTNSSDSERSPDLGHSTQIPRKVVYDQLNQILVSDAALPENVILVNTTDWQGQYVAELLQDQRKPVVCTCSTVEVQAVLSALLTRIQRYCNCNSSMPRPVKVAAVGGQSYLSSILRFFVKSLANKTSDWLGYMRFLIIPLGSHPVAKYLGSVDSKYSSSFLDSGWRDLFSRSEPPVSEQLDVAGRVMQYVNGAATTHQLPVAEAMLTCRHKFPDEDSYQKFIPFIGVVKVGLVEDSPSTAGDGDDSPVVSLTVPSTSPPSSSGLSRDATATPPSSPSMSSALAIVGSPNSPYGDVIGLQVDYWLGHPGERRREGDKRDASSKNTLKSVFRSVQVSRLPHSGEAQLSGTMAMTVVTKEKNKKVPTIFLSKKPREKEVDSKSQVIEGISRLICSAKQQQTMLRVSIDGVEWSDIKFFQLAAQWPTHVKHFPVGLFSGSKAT
UniProt Q86VP3: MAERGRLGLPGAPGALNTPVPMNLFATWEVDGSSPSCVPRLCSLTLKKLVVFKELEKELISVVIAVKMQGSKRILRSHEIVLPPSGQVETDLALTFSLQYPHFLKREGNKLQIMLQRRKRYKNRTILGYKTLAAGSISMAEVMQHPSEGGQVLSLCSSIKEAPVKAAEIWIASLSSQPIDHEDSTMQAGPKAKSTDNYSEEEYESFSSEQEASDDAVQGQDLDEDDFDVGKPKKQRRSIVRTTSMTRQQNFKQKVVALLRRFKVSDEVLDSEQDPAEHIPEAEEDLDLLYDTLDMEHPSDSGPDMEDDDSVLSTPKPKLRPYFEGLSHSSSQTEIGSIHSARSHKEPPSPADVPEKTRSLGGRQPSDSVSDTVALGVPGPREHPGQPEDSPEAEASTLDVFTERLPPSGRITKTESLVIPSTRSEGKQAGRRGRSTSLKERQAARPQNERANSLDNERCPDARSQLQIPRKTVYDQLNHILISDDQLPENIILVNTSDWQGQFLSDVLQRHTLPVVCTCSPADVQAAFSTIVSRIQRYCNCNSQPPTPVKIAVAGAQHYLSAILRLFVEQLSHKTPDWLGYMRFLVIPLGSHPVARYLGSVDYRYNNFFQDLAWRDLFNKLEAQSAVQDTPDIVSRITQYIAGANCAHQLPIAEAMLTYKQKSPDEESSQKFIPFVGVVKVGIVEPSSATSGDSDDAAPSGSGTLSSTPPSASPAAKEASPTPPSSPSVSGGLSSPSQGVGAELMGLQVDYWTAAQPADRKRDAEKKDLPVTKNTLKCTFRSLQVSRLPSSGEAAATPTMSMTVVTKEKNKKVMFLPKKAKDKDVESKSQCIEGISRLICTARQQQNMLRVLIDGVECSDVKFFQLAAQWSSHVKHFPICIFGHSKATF
UniProt Q9UBN7: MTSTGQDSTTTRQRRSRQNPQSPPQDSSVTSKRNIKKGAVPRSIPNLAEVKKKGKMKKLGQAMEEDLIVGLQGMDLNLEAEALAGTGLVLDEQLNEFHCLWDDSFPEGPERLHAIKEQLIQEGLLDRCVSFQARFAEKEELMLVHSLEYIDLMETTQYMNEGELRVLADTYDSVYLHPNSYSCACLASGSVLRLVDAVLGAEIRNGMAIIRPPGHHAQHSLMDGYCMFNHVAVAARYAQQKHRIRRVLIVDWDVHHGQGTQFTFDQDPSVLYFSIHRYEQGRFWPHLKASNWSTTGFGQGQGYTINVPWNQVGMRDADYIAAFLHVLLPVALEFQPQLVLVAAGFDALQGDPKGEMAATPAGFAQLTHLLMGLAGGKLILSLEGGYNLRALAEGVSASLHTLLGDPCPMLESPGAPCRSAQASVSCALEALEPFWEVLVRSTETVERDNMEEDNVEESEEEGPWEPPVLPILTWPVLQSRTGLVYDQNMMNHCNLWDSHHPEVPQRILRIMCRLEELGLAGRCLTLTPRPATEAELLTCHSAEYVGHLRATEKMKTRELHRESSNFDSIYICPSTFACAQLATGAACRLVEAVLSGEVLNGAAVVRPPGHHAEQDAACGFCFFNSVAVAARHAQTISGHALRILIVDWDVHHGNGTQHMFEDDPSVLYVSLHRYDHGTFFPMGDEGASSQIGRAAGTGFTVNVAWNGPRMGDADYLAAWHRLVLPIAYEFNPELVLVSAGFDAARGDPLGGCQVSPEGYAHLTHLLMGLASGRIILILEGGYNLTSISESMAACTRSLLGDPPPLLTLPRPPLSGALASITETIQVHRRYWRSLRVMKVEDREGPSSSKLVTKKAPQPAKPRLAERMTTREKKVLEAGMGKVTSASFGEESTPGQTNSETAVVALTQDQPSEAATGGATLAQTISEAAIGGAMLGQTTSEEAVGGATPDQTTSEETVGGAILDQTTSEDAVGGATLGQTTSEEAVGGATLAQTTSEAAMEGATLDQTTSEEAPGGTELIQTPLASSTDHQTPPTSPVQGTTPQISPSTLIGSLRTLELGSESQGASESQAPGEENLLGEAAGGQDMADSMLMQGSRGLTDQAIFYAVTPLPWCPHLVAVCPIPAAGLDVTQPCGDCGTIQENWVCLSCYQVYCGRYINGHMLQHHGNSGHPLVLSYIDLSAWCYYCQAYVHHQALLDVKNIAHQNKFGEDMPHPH

Assay [1] concerns the target Endogenous PACS1 (phosphofurin acidic cluster sorting protein 1) of control fibroblasts (Coriell 127160) (human) (UniProt Q6VY07). In words: co-immunoprecipitation of endogenous proteins from control fibroblast lysate with anti-HDAC6, western blot. A general note: A western blot detects proteins with antibodies after separation by electrophoresis.
Assay [2] has the same target. The assay can be described thus: co-immunoprecipitation of endogenous proteins from control fibroblasts, western blot.
For a further assay, the target named is HA-tagged PACS1 (human) (UniProt Q6VY07). The assay can be described thus: co-immunoprecipitation (anti-Flag) from co-transfected HCT116 cells, anti-HA western blot.
The target in assay [3] is HA-tagged PACS1R203W (human) (UniProt Q6VY07). The assay is described as above.
Another assay concerns the target HA-tagged PACS2 (human) (UniProt Q86VP3). The assay is described as above.

These are yes or no findings as the source states them, for the method shown. In cells and extracts the contact can be indirect. Some binding calls cover weakened binding; strength is not graded here.

As for “Endogenous HDAC6 (histone deacetylase 6) of control fibroblasts (Coriell 127160) (from UniProt Q9UBN7 1-1215) (enzyme)”, the binding result in assay [1] and in assay [2] was “binds” in each case.
As to “Flag-tagged HDAC6 (from UniProt Q9UBN7 1-1215) (enzyme)”, the binding result (in the assay with HA-tagged PACS1 (human); in assay [3]; with HA-tagged PACS2 (human)) was “binds” in each case.
